{"source": "patent US12331072", "about": "(dated 2025)", "key": {"[1]": {"assay": "general procedure: solution-phase peptide synthesis; DMT-MM"}, "peptide synthesis": {"assay": "peptide synthesis", "conditions": "whole synthesis"}}}
{"substance": "Boc-Leu-MeLeu-Thr(OBn)-MeGly-OAllyl", "values": [{"measurement": "step yield", "setting": "[1]; coupling step", "value": 93, "unit": "% yield"}, {"measurement": "crude HPLC purity", "setting": "[1]; coupling step, LC A %", "value": 95.36, "unit": "%"}]}
{"substance": "Boc-MeAla-MePhe-Leu-MeLeu-Thr(OBn)-MeGly-OH", "values": [{"measurement": "step yield", "setting": "[1]; late stage modification step", "value": 86, "unit": "%"}, {"measurement": "crude HPLC purity", "setting": "[1]; late stage modification step, LC area %", "value": 92.03, "unit": "%"}]}
{"substance": "Boc-MeIle-Ala-MePhe-MeVal-Asp(OCTC)-pip", "values": [{"measurement": "crude HPLC purity", "setting": "[1]; whole synthesis, LC area %", "value": 96.471, "unit": "%"}, {"measurement": "crude yield", "setting": "peptide synthesis", "value": 69, "unit": "%"}]}
